According to US8039514B2, “Sulfonamide compounds and use thereof” (Asahi Kasei Pharma Corporation, priority 2008, dated 2011):
Some of these results come from one statement about several compounds together.

Molecular target: T1, human calcium-sensing receptor (CaSR) (Homo sapiens, UniProt P41180)
T1 construct: expressed in transfected cells
T1 sequence (P41180 20-1078): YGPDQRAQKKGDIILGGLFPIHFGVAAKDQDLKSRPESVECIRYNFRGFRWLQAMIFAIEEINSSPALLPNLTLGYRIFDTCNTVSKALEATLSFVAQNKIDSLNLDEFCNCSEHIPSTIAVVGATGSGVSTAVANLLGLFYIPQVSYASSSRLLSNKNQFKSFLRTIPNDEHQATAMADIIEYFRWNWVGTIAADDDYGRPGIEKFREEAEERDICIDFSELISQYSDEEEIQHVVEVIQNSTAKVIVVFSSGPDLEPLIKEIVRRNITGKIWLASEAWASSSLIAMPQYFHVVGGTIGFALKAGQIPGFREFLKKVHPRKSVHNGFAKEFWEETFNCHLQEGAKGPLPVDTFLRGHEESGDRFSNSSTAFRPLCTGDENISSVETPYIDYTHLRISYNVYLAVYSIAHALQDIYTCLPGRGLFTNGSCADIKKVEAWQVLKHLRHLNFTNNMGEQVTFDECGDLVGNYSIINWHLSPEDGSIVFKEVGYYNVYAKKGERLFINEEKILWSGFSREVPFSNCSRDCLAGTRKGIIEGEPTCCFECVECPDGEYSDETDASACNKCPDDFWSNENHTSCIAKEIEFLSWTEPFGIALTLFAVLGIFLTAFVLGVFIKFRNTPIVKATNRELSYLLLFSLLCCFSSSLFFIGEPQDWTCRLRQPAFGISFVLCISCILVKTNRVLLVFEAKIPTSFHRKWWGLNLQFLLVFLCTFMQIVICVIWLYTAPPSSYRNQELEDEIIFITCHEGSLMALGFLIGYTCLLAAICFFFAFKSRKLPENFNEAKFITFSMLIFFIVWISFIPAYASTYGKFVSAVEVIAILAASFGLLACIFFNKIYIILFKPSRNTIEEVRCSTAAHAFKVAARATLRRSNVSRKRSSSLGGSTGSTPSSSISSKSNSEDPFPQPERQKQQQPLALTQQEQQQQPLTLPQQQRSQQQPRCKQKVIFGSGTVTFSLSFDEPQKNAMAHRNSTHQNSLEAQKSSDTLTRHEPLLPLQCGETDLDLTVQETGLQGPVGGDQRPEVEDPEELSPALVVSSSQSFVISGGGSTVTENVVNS
Experiment: intracellular Ca assay, CaSR antagonist activity in HEK293/hCaSR cells
Type: cell-based
Conditions: Fura2-AM, inhibition of response to calcium chloride ligand solution
How it was run: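 HEK293/hCaSR cells were loaded with Fura2-AM and pre-incubated with compound for 160 s at 37° C in HEPES buffer (pH 7.4, 0.8 mM CaCl2), then challenged with calcium ligand solution. Read-out was the peak 340/380 nm fluorescence ratio; inhibition is relative to no-compound (0%) and no-calcium-ligand (100%) controls.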

CN(C[C@H](O)CNC(C)(C)CC1Cc2ccccc2C1)S(=O)(=O)c1ccc(-c2cc(CCC(=O)O)ccc2F)c(Cl)c1 [Exp. 5-20, (R)-3-(2′-chloro-4′-(N-(3-(1-(2,3-dihydro-1H-inden-2-yl)-2-methylpropan-2-ylamino)-2-hydroxypropyl)-N-methylsulfamoyl)-6-fluorobiphenyl-3-yl)propionic acid]
IC50 values according to the intracellular Ca assay (CaSR antagonist activity): 1.0 to 0.3 μM

CN(C[C@H](O)CNC(C)(C)CC1Cc2ccccc2C1)S(=O)(=O)c1cc(-c2cc(CCC(=O)O)ccc2F)c(Cl)s1 [Exp. 5-22, (R)-3-(3-(2-chloro-5-(N-(3-(1-(2,3-dihydro-1H-inden-2-yl)-2-methylpropan-2-ylamino)-2-hydroxypropyl)-N-methylsulfamoyl)thiophen-3-yl)-4-fluorophenyl)propionic acid]
IC50 values according to the intracellular Ca assay (CaSR antagonist activity): 1.0 to 0.3 μM

COc1ccc(-c2ccc(S(=O)(=O)N(C)C[C@H](O)CNC(C)(C)CCCc3ccccc3)cc2Cl)cc1CCC(=O)O [Exp. 5-31, (R)-3-(2′-chloro-4′-(N-(2-hydroxy-3-(2-methyl-5-phenylpentan-2-ylamino)propyl)-N-methylsulfamoyl)-4-methoxybiphenyl-3-yl)propionic acid]
IC50 values according to the intracellular Ca assay (CaSR antagonist activity): 1.0 to 0.3 μM

COc1ccc(-c2ccc(S(=O)(=O)N(C)C[C@H](O)CNC(C)(C)CCCc3ccccc3)cc2C)cc1CCC(=O)O [Exp. 5-32, (R)-3-(4′-(N-(2-hydroxy-3-(2-methyl-5-phenylpentan-2-ylamino)propyl)-N-methylsulfamoyl)-4-methoxy-2′-methylbiphenyl-3-yl)propionic acid]
IC50 values according to the intracellular Ca assay (CaSR antagonist activity): 1.0 to 0.3 μM

CN(C[C@H](O)CNC(C)(C)CC1Cc2ccccc2C1)S(=O)(=O)c1ccc(-c2cc(F)ccc2CCC(=O)O)c(Cl)c1 [Exp. 5-36, (R)-3-(2′-chloro-4′-(N-(3-(1-(2,3-dihydro-1H-inden-2-yl)-2-methylpropan-2-ylamino)-2-hydroxypropyl)-N-methylsulfamoyl)-5-fluorobiphenyl-2-yl)propionic acid]
IC50 values according to the intracellular Ca assay (CaSR antagonist activity): 1.0 to 0.3 μM

CN(C[C@H](O)CNC(C)(C)CC1Cc2ccccc2C1)S(=O)(=O)c1ccc(-c2cc(F)ccc2CCC(=O)O)c(F)c1 [Exp. 5-37, (R)-3-(4′-(N-(3-(1-(2,3-dihydro-1H-inden-2-yl)-2-methylpropan-2-ylamino)-2-hydroxypropyl)-N-methylsulfamoyl)-2′,5-difluorobiphenyl-2-yl)propionic acid]
IC50 values according to the intracellular Ca assay (CaSR antagonist activity): 1.0 to 0.3 μM

CN(C[C@H](O)CNC(C)(C)CC1Cc2ccccc2C1)S(=O)(=O)c1cc(-c2cc(F)ccc2CCC(=O)O)c(Cl)s1 [Exp. 5-38, (R)-3-(2-(2-chloro-5-(N-(3-(1-(2,3-dihydro-1H-inden-2-yl)-2-methylpropan-2-ylamino)-2-hydroxypropyl)-N-methylsulfamoyl)thiophen-3-yl)-4-fluorophenyl)propionic acid]
IC50 values according to the intracellular Ca assay (CaSR antagonist activity): 3.0 to 1.0 μM

COc1cc(CCC(=O)O)c(-c2ccc(S(=O)(=O)N(C)C[C@H](O)CNC(C)(C)CC3Cc4ccccc4C3)cc2Cl)cc1OC [Exp. 5-45, (R)-3-(2′-chloro-4′-(N-(3-(1-(2,3-dihydro-1H-inden-2-yl)-2-methylpropan-2-ylamino)-2-hydroxypropyl)-N-methylsulfamoyl)-4,5-dimethoxybiphenyl-2-yl)propionic acid]
IC50 values according to the intracellular Ca assay (CaSR antagonist activity): 1.0 to 0.3 μM

CCc1cc(-c2ccc(F)cc2CCC(=O)O)ccc1S(=O)(=O)N(C)C[C@H](O)CNC(C)(C)CCCc1ccccc1 [Exp. 5-53, (R)-3-(3′-ethyl-4-fluoro-4′-(N-(2-hydroxy-3-(2-methyl-5-phenylpentan-2-ylamino)propyl)-N-methylsulfamoyl)biphenyl-2-yl)propionic acid]
IC50 values according to the intracellular Ca assay (CaSR antagonist activity): 1.0 to 0.3 μM

CN(C[C@H](O)CNC(C)(C)CCCc1ccccc1)S(=O)(=O)c1ccc(-c2ccc(F)cc2CCC(=O)O)c(Cl)c1 [Exp. 5-54, (R)-3-(2′-chloro-4-fluoro-4′-(N-(2-hydroxy-3-(2-methyl-5-phenylpentan-2-ylamino)propyl)-N-methylsulfamoyl)biphenyl-2-yl)propionic acid]
IC50 values according to the intracellular Ca assay (CaSR antagonist activity): 3.0 to 1.0 μM

CN(C[C@H](O)CNC(C)(C)CC1Cc2ccccc2C1)S(=O)(=O)c1cccc(-c2ccc(F)c(CCC(=O)O)c2)c1 [Exp. 5-60, (R)-3-(3′-(N-(3-(1-(2,3-dihydro-1H-inden-2-yl)-2-methylpropan-2-ylamino)-2-hydroxypropyl)-N-methylsulfamoyl)-4-fluorobiphenyl-3-yl)propionic acid]
IC50 values according to the intracellular Ca assay (CaSR antagonist activity): 1.0 to 0.3 μM

CN(C[C@H](O)CNC(C)(C)CC1Cc2ccccc2C1)S(=O)(=O)c1cc(-c2ccc(F)c(CCC(=O)O)c2)cc(C(F)(F)F)c1 [Exp. 5-61, (R)-3-(3′-(N-(3-(1-(2,3-dihydro-1H-inden-2-yl)-2-methylpropan-2-ylamino)-2-hydroxypropyl)-N-methylsulfamoyl)-4-fluoro-5′-(trifluoromethyl)biphenyl-3-yl)propionic acid]
IC50 values according to the intracellular Ca assay (CaSR antagonist activity): 1.0 to 0.3 μM

Cc1ccc(CCC(=O)O)c(-c2ccc(S(=O)(=O)N(C)C[C@H](O)CNC(C)(C)CC3Cc4ccccc4C3)cc2F)c1 [Exp. 5-63, (R)-3-(4′-(N-(3-(1-(2,3-dihydro-1H-inden-2-yl)-2-methylpropan-2-ylamino)-2-hydroxypropyl)-N-methylsulfamoyl)-2′-fluoro-5-methylbiphenyl-2-yl)propionic acid]
IC50 values according to the intracellular Ca assay (CaSR antagonist activity): 1.0 to 0.3 μM

CCc1cc(-c2cc(C)ccc2CCC(=O)O)ccc1S(=O)(=O)N(C)C[C@H](O)CNC(C)(C)CC1Cc2ccccc2C1 [Exp. 5-64, (R)-3-(4′-(N-(3-(1-(2,3-dihydro-1H-inden-2-yl)-2-methylpropan-2-ylamino)-2-hydroxypropyl)-N-methylsulfamoyl)-3′-ethyl-5-methylbiphenyl-2-yl)propionic acid]
IC50 values according to the intracellular Ca assay (CaSR antagonist activity): 3.0 to 1.0 μM

Cc1ccc(CCC(=O)O)c(-c2cc(S(=O)(=O)N(C)C[C@H](O)CNC(C)(C)CC3Cc4ccccc4C3)sc2Cl)c1 [Exp. 5-65, (R)-3-(2-(2-chloro-5-(N-(3-(1-(2,3-dihydro-1H-inden-2-yl)-2-methylpropan-2-ylamino)-2-hydroxypropyl)-N-methylsulfamoyl)thiophen-3-yl)-4-methylphenyl)propionic acid]
IC50 values according to the intracellular Ca assay (CaSR antagonist activity): 3.0 to 1.0 μM

Cc1ccc(CCC(=O)O)c(-c2ccc(S(=O)(=O)N(C)C[C@H](O)CNC(C)(C)CCCc3ccccc3)cc2Cl)c1 [Exp. 5-66, (R)-3-(2′-chloro-4′-(N-(2-hydroxy-3-(2-methyl-5-phenylpentan-2-ylamino)propyl)-N-methylsulfamoyl)-5-methylbiphenyl-2-yl)propionic acid]
IC50 values according to the intracellular Ca assay (CaSR antagonist activity): 1.0 to 0.3 μM

Cc1ccc(CCC(=O)O)c(-c2ccc(S(=O)(=O)N(C)C[C@H](O)CNC(C)(C)CCCc3ccccc3)cc2C)c1 [Exp. 5-67, (R)-3-(4′-(N-(2-hydroxy-3-(2-methyl-5-phenylpentan-2-ylamino)propyl)-N-methylsulfamoyl)-2′,5-dimethylbiphenyl-2-yl)propionic acid]
IC50 values according to the intracellular Ca assay (CaSR antagonist activity): 3.0 to 1.0 μM
